Experimental data published in PubChem BioAssay AID1671190 (National Center for Advancing Translational Sciences (NCATS), 2021).
The campaign covered roughly 580,000 compounds. About 6,100 (1.1%) were called active. Inconclusive results, whose numbers are uncertain, are shown with a selection of clear calls. Calls follow the shape of the dose curve; as a rule, active = well fitted inhibition curve with a large enough effect; inconclusive = small, poorly fitted or top-dose-only effect, or another doubt; inactive = no such curve, though single readings can be large or run the other way. Potencies of inconclusive entries are doubtful fits and often do not repeat.

The chains behind the UniProt entries cited, without tags or fusion partners. Where a name states a change or a piece, a line headed by the entry shows the natural chain unless it says otherwise.
UniProt P18054: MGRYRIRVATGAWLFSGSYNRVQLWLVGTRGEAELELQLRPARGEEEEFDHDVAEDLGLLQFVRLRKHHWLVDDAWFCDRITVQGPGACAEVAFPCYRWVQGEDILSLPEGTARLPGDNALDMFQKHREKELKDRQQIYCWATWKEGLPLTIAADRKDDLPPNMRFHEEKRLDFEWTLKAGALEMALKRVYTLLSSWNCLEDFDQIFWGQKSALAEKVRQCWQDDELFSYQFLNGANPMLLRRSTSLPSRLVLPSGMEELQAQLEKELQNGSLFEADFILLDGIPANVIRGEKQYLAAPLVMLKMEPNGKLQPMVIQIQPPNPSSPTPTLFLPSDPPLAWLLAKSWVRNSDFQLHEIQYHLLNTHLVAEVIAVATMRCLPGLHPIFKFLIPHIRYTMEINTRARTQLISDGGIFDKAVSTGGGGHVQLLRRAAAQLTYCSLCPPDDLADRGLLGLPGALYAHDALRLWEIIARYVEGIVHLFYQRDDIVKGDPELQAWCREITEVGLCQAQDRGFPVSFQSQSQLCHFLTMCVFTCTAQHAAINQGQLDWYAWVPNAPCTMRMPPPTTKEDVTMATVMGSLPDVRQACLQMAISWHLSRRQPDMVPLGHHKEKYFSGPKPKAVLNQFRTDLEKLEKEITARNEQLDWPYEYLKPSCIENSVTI

molecular target: Polyunsaturated fatty acid lipoxygenase ALOX12 (Homo sapiens) (UniProt P18054); assay: Primary qHTS assay for inhibitors of human arachidonate 12S-lipoxygenase (ALOX12): Round 2; conditions: purified 12hLO, xylenol orange hydroperoxide absorbance; activity change, negative = inhibition: at 108 µM (top of the series) unless noted
Outline: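 Hydroperoxide product was detected by ferrous iron/xylenol orange as the 573 to 405 nm absorbance ratio. Arachidonic acid at 40 uM (final) was turned over for 30 min at room temperature by 150 nM human 12hLO, pH 7.0 Hepes buffer, after 15 min compound preincubation.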
% is scaled to controls: 0 for no effect and ±100 for the full control effect; potency is read from the fitted curve at half-maximal effect.

Structure (SMILES) | Potency | activity change, negative = inhibition
COc1cccc(Cc2n[nH]c(=S)n2Cc2ccco2)c1 | inconclusive: 28.2 µM [inhibitor, partial curve, poor fit] | –
CN(C)CCCCOc1cccc(Br)c1 | inconclusive: 0.631 µM [inhibitor, full curve] | –
CC1(C(=O)OCC(=O)Nc2ccc3ccccc3c2)CC1(Cl)Cl (stereo unspecified) | – | inactive: -13.8%
COc1cc(NC(=O)C2(C#N)CCCC2)c(OC)cc1NC(=O)c1ccccc1 | – | inactive: 76.6%
CCn1nccc1C(=O)N1C[C@@H](Oc2cccnc2)C[C@@H]1C(=O)NCCOC | – | inactive: 9.78%
O=C(COC(=O)/C=C/c1cccc([N+](=O)[O-])c1)Nc1cccnc1Cl | – | inactive: -19.7%
O=C1CC(c2ccccc2)N(C(=O)CNC(=O)c2ccc3ccccc3n2)CCCCCCN1 (stereo unspecified) | – | inactive: 55.8%
Oc1ccccc1-c1cc(-c2ccc3c(c2)OCCO3)n[nH]1 | inconclusive: 15.8 µM [inhibitor, full curve] | –
CC(C)COC(=O)NCC12C=CC(O1)C1C(=O)N(c3ccc(Cl)cc3)C(=O)C12 (stereo unspecified) | inconclusive: 5.62 µM [inhibitor, full curve, poor fit] | –
Cc1ccc(CN2C(=O)CCC2(C)c2nnnn2-c2c(C)cccc2C)cc1 (stereo unspecified) | inconclusive: 44.7 µM [inhibitor, partial curve, poor fit] | –
CCOc1ccc(NC(=O)CCNS(=O)(=O)c2ccc3c(c2)CC(C)N3C(C)=O)cc1 (stereo unspecified) | – | inactive: 4.54%
CCOC(=O)c1cc2cc(C(F)(F)F)ccc2[nH]1 | inconclusive: 39.8 µM [inhibitor, partial curve, poor fit] | –
Cc1cc(=O)n(CC(=O)Nc2c(C)cccc2C)c(-c2ccc(F)cc2)n1 | inconclusive: 35.5 µM [inhibitor, partial curve] | –
COc1ccc(CN(CCC(c2ccccc2)c2ccco2)C(=O)c2ccco2)cc1 (stereo unspecified) | active: 50.1 µM | –
N#C/C(=C\c1cccn1S(=O)(=O)c1cccc([N+](=O)[O-])c1)S(=O)(=O)c1ccc(F)cc1 | inconclusive: 10 µM [inhibitor, partial curve, poor fit] | –
Fc1ccc(-[n+]2nc(Nc3ccccc3)sc2-c2ccc(OCc3ccccc3)cc2)cc1 | active: 39.8 µM | –
CC(=O)NCc1ccc(-c2csc(Nc3cccc(C(F)(F)F)c3)n2)o1 | active: 10 µM | –
CCOC(=O)c1ccc(Nc2cc(C)nc3ccccc23)cc1 | – | inactive: -6.74%
Cc1cc(CN2CCn3c(nnc3-c3ccc(Cl)cc3)C2)no1 | – | inactive: 3.89% [at 6.33 µM]
CCCNC(=O)N1CCC(N2C(=O)C(OC)C23CCOCC3)CC1 (stereo unspecified) | – | inactive: 42.9%
C=CCOC(=O)Nc1nc(CCNC(=O)OC(C)(C)C)c(C(=O)O)s1 | inconclusive: 31.6 µM [inhibitor, partial curve, poor fit] | –
O=C(NCCN1CCCC1)C1CCN(C(=O)N2CC3CC(C2)[C@H]2CCCC(=O)N2C3)CC1 (stereo partly specified) | – | inactive: 65.8%

Reformatted: results already given.
Structure (SMILES)	Potency	activity change, negative = inhibition
Cc1cc(=O)n(CC(=O)Nc2c(C)cccc2C)c(-c2ccc(F)cc2)n1	inconclusive: 35.5 µM [inhibitor, partial curve]	–
COc1ccc(CN(CCC(c2ccccc2)c2ccco2)C(=O)c2ccco2)cc1 (stereo unspecified)	active: 50.1 µM	–
N#C/C(=C\c1cccn1S(=O)(=O)c1cccc([N+](=O)[O-])c1)S(=O)(=O)c1ccc(F)cc1	inconclusive: 10 µM [inhibitor, partial curve, poor fit]	–
Fc1ccc(-[n+]2nc(Nc3ccccc3)sc2-c2ccc(OCc3ccccc3)cc2)cc1	active: 39.8 µM	–

Next records follow.

Structure (SMILES) | Potency | activity change, negative = inhibition
CC(=O)N1CCC2(CC1)OC(=O)C(C)=C2C(=O)NCCN1CCCCCC1 | inconclusive: 0.316 µM [inhibitor, full curve, poor fit] | –
O=S(=O)(NCC(c1ccco1)N1CCN(c2ccc(F)cc2)CC1)c1cc(F)ccc1F (stereo unspecified) | inconclusive: 79.4 µM [inhibitor, partial curve, poor fit] | –
CCCCS/C(=C(/C#N)C(N)=O)c1cc2c([nH]1)CCCC2 | inconclusive: 44.7 µM [inhibitor, partial curve] | –
CCCN1CCc2c(sc(NC(=S)NC(=O)c3ccccc3)c2C#N)C1 | inconclusive: 44.7 µM [inhibitor, partial curve, poor fit] | –
CCc1ccc(C2N3CC4(CC)CN2CC(CC)(C3)C4=O)cc1 (stereo unspecified) | – | inactive: -1.36%
COC(=O)[C@@]12CCCN1[C@H](c1ccc(-c3ccccc3)c(OC)c1)[C@H]1C(=O)N(C)C(=O)[C@H]12 | active: 12.6 µM | –
CC(C)NC(=O)N1CCN(C(=O)c2cccnc2)C[C@H]1C(=O)N[C@@H](CC1CCCCC1)C(N)=O | – | inactive: 27.1%
Cc1ccc(N/C=C(\C2OC(=O)c3ccccc32)[N+](=O)[O-])c(C)c1 (stereo unspecified) | inconclusive: 3.16 µM [inhibitor, full curve, poor fit] | –
CC(Nc1[nH]c(=O)n(C)c(=O)c1N=O)c1ccccc1 (stereo unspecified) | inconclusive: 7.94 µM [inhibitor, full curve] | –
O=C(CSc1nnc2ccc3ccccc3n12)N1CCOCC1 | – | inactive: -6.74%
NCc1cc2c3c(c1)CCCN3CCC2 | inconclusive: 35.5 µM [inhibitor, single point] | –
CC(C)c1nnc(NC(=O)CS(=O)(=O)c2ccccc2)s1 | – | inconclusive: -35.6% [inhibitor]
CN1CCN(c2ncc3nc(-c4cccc(C#N)c4)c(=O)n(C)c3n2)CC1 | inconclusive: 11.2 µM [inhibitor, partial curve, poor fit] | –
CCN(CC)C(=O)c1ccc(Cc2cn(C)c3ccccc23)nc1 | inconclusive: 39.8 µM [inhibitor, partial curve] | –
Oc1ccc(-c2nc(C3CC3)nc3c2CCN(Cc2cccc4ccccc24)CC3)cc1 | inconclusive: 17.8 µM [inhibitor, full curve, poor fit] | –
Cc1ccc(CNc2nc(NCc3ccccc3)nc3ccsc23)c(C)c1 | inconclusive: 44.7 µM [inhibitor, partial curve, poor fit] | –
CSc1cccc(N2CC(C(=O)Nc3ccccc3N3CCCC3)CC2=O)c1 (stereo unspecified) | inconclusive: 100 µM [inhibitor, single point] | –
CN(C)CCNCC1CCCCC1 | inconclusive: 31.6 µM [inhibitor, partial curve, poor fit] | –
COc1ccc(S(N)(=O)=O)cc1C(=O)OCCCOc1ccc(F)cc1 | inconclusive: 112 µM [inhibitor, single point] | –
Cc1c(C(=O)N2CCN(c3ncccn3)CC2)oc2c(Cl)cccc12 | inconclusive: 0.0316 µM [inhibitor, full curve, poor fit] | –
CCOC(=O)c1sc(NC(=O)c2cc(-c3ccc(C)cc3)nc3ccccc23)c(C#N)c1C | inconclusive: 50.1 µM [inhibitor, partial curve, poor fit] | –
CCn1c2ccccc2c2cc(CNCc3ccc(OC)cc3OC)ccc21 | inconclusive: 50.1 µM [inhibitor, partial curve, poor fit] | –

Structure (SMILES) | Potency | activity change, negative = inhibition
CCCS(=O)(=O)NC(=O)C1(C)CCN(C(=O)c2cc(C(C)(C)C)nn2C)C1 (stereo unspecified) | – | inactive: -49.5%
Cn1c(=O)[nH]c(=O)c2c1nc(SCC(=O)O)n2Cc1ccc(Cl)cc1 | inconclusive: 31.6 µM [inhibitor, partial curve, poor fit] | –
Cc1ccc2c(=O)cc(C(=O)N3CCOC34CCN(C)CC4)oc2c1 | inconclusive: 44.7 µM [inhibitor, partial curve, poor fit] | –
CN=c1scc(C)n1/N=C/c1ccc(C#N)cc1 | inconclusive: 63.1 µM [inhibitor, partial curve, poor fit] | –
Cc1ccc(S(=O)(=O)Nc2nc3ccccc3nc2N2CCCCC2)cc1 | inconclusive: 35.5 µM [inhibitor, full curve, poor fit] | –
CCOC(=O)NC(NC(=S)Nc1ccccc1[N+](=O)[O-])C(Cl)(Cl)Cl (stereo unspecified) | inconclusive: 39.8 µM [inhibitor, partial curve] | –
COc1cc(OC)cc(C(=O)NC(=S)Nc2cccnc2)c1 | inconclusive: 31.6 µM [inhibitor, partial curve, poor fit] | –
CCn1c(C(C)NC(=O)c2ccc(Cl)cc2)n[nH]c1=S (stereo unspecified) | inconclusive: 50.1 µM [inhibitor, partial curve, poor fit] | –
NC(=O)C[C@@H]1NC(=O)c2cc([N+](=O)[O-])cc(F)c2NCCCC[C@@H](C(N)=O)NC(=O)[C@H](CO)NC1=O | inconclusive: 63.1 µM [inhibitor, partial curve, poor fit] | –
O=C(Nc1ccc(Br)cc1)c1cc(S(=O)(=O)N2CCc3ccccc32)ccc1F | inconclusive: 100 µM [inhibitor, partial curve, poor fit] | –
Cn1c(=O)[nH]c(=O)c2c1nc(NCCCN1CCOCC1)n2Cc1ccc(F)cc1 | – | inactive: 13.8%
O=C(Nc1ccc(F)cc1)c1cnc(N2CCCCC2)c2ccccc12 | – | inactive: -4.37%
CCC(=O)c1sc(Nc2ccc(C)cc2C)nc1N | inconclusive: 79.4 µM [inhibitor, partial curve, poor fit] | –
COc1ccccc1C(=O)N1CCC(N2CCN(c3ccccc3OC)CC2)CC1 | inconclusive: 0.316 µM [inhibitor, full curve, poor fit] | –
CCN(CC)C(=O)CSc1nnc(-c2ccccn2)n1-c1ccc(C)c(C)c1 | – | inactive: 0.612%
CC(C)(C)NS(=O)(=O)c1ccc(NC(=O)Cc2ccccc2[N+](=O)[O-])cc1 | inconclusive: 70.8 µM [inhibitor, partial curve, poor fit] | –
CCCCCCNC(=O)CCNC(=O)c1ccccc1 | – | inactive: -2.13%
Cc1cnc(C=NNC(N)=S)c2cccc(N)c12 | inconclusive: 39.8 µM [inhibitor, partial curve] | –
N#Cc1nc(-c2ccco2)oc1NCc1ccc(F)cc1 | inconclusive: 89.1 µM [inhibitor, single point] | –
CSc1ccccc1NC(=O)c1ccc([N+](=O)[O-])cc1 | inconclusive: 35.5 µM [inhibitor, partial curve] | –
O=C(CNC(=O)c1ccc(OC(F)F)cc1)NCC1CCCO1 (stereo unspecified) | inconclusive: 28.2 µM [inhibitor, single point] | –
NNc1ncnc2sc3c(c12)CCC3 | inconclusive: 70.8 µM [inhibitor, partial curve, poor fit] | –
